Measurements taken from article PMC4230729.
These are yes or no findings as the source states them, for the method shown. Binding seen in cells or lysates may run through a third protein. Some binding calls cover weakened binding; strength is not graded here.

Protein sequences, listed by entry. Tags and fused reporters are not part of them. Lines headed by an entry give the natural chain unless they say otherwise; changes in a name come on top.
UniProt P91910: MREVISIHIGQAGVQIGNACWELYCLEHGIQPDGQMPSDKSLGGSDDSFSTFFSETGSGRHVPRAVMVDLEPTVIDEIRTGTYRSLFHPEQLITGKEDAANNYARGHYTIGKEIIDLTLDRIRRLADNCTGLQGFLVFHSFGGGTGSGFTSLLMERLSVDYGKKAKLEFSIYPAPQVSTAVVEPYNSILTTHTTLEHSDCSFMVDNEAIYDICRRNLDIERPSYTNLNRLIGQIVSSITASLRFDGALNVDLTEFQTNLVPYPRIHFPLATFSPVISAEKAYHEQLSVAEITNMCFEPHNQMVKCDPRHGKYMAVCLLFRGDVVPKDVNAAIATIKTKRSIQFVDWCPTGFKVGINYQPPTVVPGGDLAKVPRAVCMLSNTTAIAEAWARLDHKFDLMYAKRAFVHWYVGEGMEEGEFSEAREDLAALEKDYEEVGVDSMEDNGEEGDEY
UniProt P12456: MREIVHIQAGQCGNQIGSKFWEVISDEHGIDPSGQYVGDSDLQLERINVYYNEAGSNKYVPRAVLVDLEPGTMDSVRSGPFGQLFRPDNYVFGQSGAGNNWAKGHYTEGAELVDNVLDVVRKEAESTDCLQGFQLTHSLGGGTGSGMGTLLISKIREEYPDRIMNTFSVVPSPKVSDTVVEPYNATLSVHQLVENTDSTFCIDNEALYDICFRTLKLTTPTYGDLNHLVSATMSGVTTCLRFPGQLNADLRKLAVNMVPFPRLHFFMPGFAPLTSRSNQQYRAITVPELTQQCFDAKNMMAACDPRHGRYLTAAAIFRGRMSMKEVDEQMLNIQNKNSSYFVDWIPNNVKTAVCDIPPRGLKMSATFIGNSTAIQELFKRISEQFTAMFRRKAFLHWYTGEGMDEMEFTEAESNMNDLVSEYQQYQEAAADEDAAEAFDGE
UniProt P23678: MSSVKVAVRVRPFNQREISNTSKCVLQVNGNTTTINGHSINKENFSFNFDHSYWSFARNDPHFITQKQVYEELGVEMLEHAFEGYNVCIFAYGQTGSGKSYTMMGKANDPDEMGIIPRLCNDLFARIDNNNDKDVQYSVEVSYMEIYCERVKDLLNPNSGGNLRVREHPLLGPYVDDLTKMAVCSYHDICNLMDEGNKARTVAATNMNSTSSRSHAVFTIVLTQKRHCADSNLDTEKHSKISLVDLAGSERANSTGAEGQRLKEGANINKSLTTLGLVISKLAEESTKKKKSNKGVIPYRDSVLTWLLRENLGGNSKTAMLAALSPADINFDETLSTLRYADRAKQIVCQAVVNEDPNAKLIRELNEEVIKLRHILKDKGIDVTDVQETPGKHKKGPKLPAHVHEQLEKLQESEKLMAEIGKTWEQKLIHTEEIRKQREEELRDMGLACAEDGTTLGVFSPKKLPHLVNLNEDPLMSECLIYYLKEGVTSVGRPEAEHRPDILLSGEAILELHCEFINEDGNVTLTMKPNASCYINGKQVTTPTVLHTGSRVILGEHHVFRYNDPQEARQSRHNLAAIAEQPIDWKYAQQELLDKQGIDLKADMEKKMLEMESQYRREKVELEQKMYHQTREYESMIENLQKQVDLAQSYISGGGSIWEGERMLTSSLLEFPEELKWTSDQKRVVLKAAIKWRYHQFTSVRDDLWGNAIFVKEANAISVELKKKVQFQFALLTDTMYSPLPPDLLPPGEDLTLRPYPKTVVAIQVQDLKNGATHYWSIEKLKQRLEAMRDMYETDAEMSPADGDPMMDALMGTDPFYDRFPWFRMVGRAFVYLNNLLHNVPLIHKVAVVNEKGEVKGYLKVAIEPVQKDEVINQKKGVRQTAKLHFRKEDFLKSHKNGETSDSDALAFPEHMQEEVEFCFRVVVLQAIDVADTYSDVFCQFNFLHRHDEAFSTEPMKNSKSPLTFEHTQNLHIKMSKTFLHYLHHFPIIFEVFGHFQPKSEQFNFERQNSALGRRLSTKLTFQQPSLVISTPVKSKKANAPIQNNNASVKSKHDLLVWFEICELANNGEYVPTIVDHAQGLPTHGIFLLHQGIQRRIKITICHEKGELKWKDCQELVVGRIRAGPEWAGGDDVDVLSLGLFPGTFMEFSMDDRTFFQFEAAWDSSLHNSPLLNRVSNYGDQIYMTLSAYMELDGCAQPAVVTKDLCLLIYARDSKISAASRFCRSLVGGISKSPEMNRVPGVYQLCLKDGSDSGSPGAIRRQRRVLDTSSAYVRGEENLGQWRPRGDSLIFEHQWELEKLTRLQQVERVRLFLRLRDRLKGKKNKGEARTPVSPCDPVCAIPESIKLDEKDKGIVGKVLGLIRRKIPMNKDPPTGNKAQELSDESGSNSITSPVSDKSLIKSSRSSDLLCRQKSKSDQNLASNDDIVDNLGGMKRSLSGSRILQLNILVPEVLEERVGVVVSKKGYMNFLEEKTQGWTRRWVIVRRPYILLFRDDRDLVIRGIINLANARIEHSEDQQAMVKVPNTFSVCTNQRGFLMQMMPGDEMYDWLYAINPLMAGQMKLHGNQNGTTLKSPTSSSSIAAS

Experiments:
[1] = target: MEC-12(G416E)-containing microtubules (C. elegans) (UniProt P91910+P12456); assay: co-sedimentation; microtubules polymerised in the high-speed supernatant of worm extract (PMEG buffer, 2 mM GTP, taxol, hexokinase, glucose, AMP-PNP, on ice 90 min), sedimented through a 20% sucrose cushion, washed with 50 mM NaCl, pelleted; pellet blotted with anti-DHC-1, anti-UNC-104 and 6-11B-1; band intensity normalised to tubulin
[2] = target: wild-type microtubules sedimented from animals overexpressing wild-type MEC-12 (with MEC-7) (C. elegans) (UniProt P91910+P12456); assay: as above

binding [1] | binding [2] | Substance
binds | binds | DHC-1, heavy chain of cytoplasmic dynein (from UniProt Q19020 1-4568)
binds | binds | UNC-104/KIF1A (from UniProt P23678 1-1584)
